In paper PMC12540686 one finds binding data, which are given here for one molecule.

Results are given in words; binding and its absence hold for the method and conditions named. Binding seen in cells or lysates may run through a third protein.

The experiment deals with GST-PIM. In words: pull-down; GST fusion proteins bound to glutathione sepharose beads as baits, incubated with third instar larval brain extracts for 1 h at 4 °C in 20 mM Hepes KOH, 20 mM NaF, 0.8% NP40; western blot with anti-Dm0 or anti-LamC; only the target purified.

B1: A/C-type lamin C (LamC) (protein, UniProt Q03427 1-621)
chain: MSARRVTLNTRVSRASTSTPVGGASTSSRVGATSPTSPTRTSRQQEKEELQHLNDRLACYIDRMRNLENENSRLTQELNLAQDTVNRETSNLKAVYEKELAAARKLLDETAKEKAKLEIDIKRLWEENDDLKPRLDKKTKEATVAENNARLYENRYNEVNGKYNQSLADRKKFEDQAKELALENERLRRQLDDLRKQLEAETLARVDLENQNQSLREELAFKDQVHTQELTETRSRRQIEISEIDGRLSRQYEAKLQQSLQELRDQYEGQMRINREEIELLYDNEIQNLKAAANRAAQGSALATEEVRLMRTKIDGLNAKLQNLEDTNAGLNARIRELENLLDTERQRHNQYIASLEAELQRMRDEMAHQLQEYQGLMDIKVSLDLEIAAYDKLLCGEERRLNIESPGRPTTDSGISSNGSHLTASASSRSGRVTPSGRRSATPGISGSSAVKRRRTVIDESEDRTLSEYSVNAAAKGDLEIIEADVEGRFIKLHNKGTEEINLTGWQLTRIAGDEELAFKFSRGSKVLGGASVTIWSVDAGTAHDPPNNLVMKKKWPVANSMRSVLANADKEDVASYDRVRANVSSHTSRHRSSGTPSTGFTLGSGAGSTGVRSLFSLLF
Regarding B1, the binding result is given as “no binding”.
